Results taken from ChEMBL document CHEMBL4316593 (Eur J Med Chem, 2019).
Further values from the same series stand in other lists.

What was measured:
Assay type in all cases: cell-based
Conditions in all cases: U-87MG ATCC
[1] = Inhibition of RTK/PI3K/AKT/mTOR signaling in human U87 cells assessed as down regulation of CMTR2 gene expression at cytotoxic IC50 measured after 48 hrs relative to control
[2] = Inhibition of RTK/PI3K/AKT/mTOR signaling in human U87 cells assessed as down regulation of MED29 gene expression at cytotoxic IC50 measured after 48 hrs relative to control
[3] = Inhibition of RTK/PI3K/AKT/mTOR signaling in human U87 cells assessed as up regulation of NORAD gene expression at cytotoxic IC50 measured after 48 hrs relative to control
[4] = Inhibition of RTK/PI3K/AKT/mTOR signaling in human U87 cells assessed as down regulation of STRAP gene expression at cytotoxic IC50 measured after 48 hrs relative to control
[5] = Inhibition of RTK/PI3K/AKT/mTOR signaling in human U87 cells assessed as down regulation of TAX1BP1 gene expression at cytotoxic IC50 measured after 48 hrs relative to control
[6] = Inhibition of RTK/PI3K/AKT/mTOR signaling in human U87 cells assessed as down regulation of NEFM gene expression at cytotoxic IC50 measured after 48 hrs relative to control
[7] = Inhibition of RTK/PI3K/AKT/mTOR signaling in human U87 cells assessed as down regulation of SRSF7 gene expression at cytotoxic IC50 measured after 48 hrs relative to control
[8] = Inhibition of RTK/PI3K/AKT/mTOR signaling in human U87 cells assessed as down regulation of TIGAR gene expression at cytotoxic IC50 measured after 48 hrs relative to control
[9] = Inhibition of RTK/PI3K/AKT/mTOR signaling in human U87 cells assessed as down regulation of ACO2 gene expression at cytotoxic IC50 measured after 48 hrs relative to control
[10] = Inhibition of RTK/PI3K/AKT/mTOR signaling in human U87 cells assessed as up regulation of potassium channel tetramerization domain containing 11 gene expression at cytotoxic IC50 measured after 48 hrs relative to control
[11] = Inhibition of RTK/PI3K/AKT/mTOR signaling in human U87 cells assessed as down regulation of SRXN1 gene expression at cytotoxic IC50 measured after 48 hrs relative to control
[12] = Inhibition of RTK/PI3K/AKT/mTOR signaling in human U87 cells assessed as up regulation of RNF213 gene expression at cytotoxic IC50 measured after 48 hrs relative to control
[13] = Inhibition of RTK/PI3K/AKT/mTOR signaling in human U87 cells assessed as down regulation of USB1 gene expression at cytotoxic IC50 measured after 48 hrs relative to control
[14] = Inhibition of RTK/PI3K/AKT/mTOR signaling in human U87 cells assessed as down regulation of TSPAN13 gene expression at cytotoxic IC50 measured after 48 hrs relative to control
[15] = Inhibition of RTK/PI3K/AKT/mTOR signaling in human U87 cells assessed as up regulation of ANXA3 gene expression at cytotoxic IC50 measured after 48 hrs relative to control
[16] = Inhibition of RTK/PI3K/AKT/mTOR signaling in human U87 cells assessed as down regulation of NBPF1 gene expression at cytotoxic IC50 measured after 48 hrs relative to control
[17] = Inhibition of RTK/PI3K/AKT/mTOR signaling in human U87 cells assessed as up regulation of brain expressed X-linked 2 gene expression at cytotoxic IC50 measured after 48 hrs relative to control
[18] = Inhibition of RTK/PI3K/AKT/mTOR signaling in human U87 cells assessed as down regulation of FAM102B gene expression at cytotoxic IC50 measured after 48 hrs relative to control
[19] = Inhibition of RTK/PI3K/AKT/mTOR signaling in human U87 cells assessed as up regulation of copine 7 gene expression at cytotoxic IC50 measured after 48 hrs relative to control
[20] = Inhibition of RTK/PI3K/AKT/mTOR signaling in human U87 cells assessed as down regulation of HACL1 gene expression at cytotoxic IC50 measured after 48 hrs relative to control
[21] = Inhibition of RTK/PI3K/AKT/mTOR signaling in human U87 cells assessed as up regulation of glutathione S-transferase omega 2 gene expression at cytotoxic IC50 measured after 48 hrs relative to control
[22] = Inhibition of RTK/PI3K/AKT/mTOR signaling in human U87 cells assessed as up regulation of EMP3 gene expression at cytotoxic IC50 measured after 48 hrs relative to control
[23] = Inhibition of RTK/PI3K/AKT/mTOR signaling in human U87 cells assessed as up regulation of protein C receptor gene expression at cytotoxic IC50 measured after 48 hrs relative to control
[24] = Inhibition of RTK/PI3K/AKT/mTOR signaling in human U87 cells assessed as down regulation of PDRG1 gene expression at cytotoxic IC50 measured after 48 hrs relative to control
[25] = Inhibition of RTK/PI3K/AKT/mTOR signaling in human U87 cells assessed as down regulation of TRIM9 gene expression at cytotoxic IC50 measured after 48 hrs relative to control
[26] = Inhibition of RTK/PI3K/AKT/mTOR signaling in human U87 cells assessed as up regulation of FAM84B gene expression at cytotoxic IC50 measured after 48 hrs relative to control
[27] = Inhibition of RTK/PI3K/AKT/mTOR signaling in human U87 cells assessed as up regulation of KLHL29 gene expression at cytotoxic IC50 measured after 48 hrs relative to control
[28] = Inhibition of RTK/PI3K/AKT/mTOR signaling in human U87 cells assessed as up regulation of endoplasmic reticulum-golgi intermediate compartment 1 gene expression at cytotoxic IC50 measured after 48 hrs relative to control
[29] = Inhibition of RTK/PI3K/AKT/mTOR signaling in human U87 cells assessed as up regulation of CYTH4 gene expression at cytotoxic IC50 measured after 48 hrs relative to control
[30] = Inhibition of RTK/PI3K/AKT/mTOR signaling in human U87 cells assessed as up regulation of phosphoglycerate mutase 1 gene expression at cytotoxic IC50 measured after 48 hrs relative to control
[31] = Inhibition of RTK/PI3K/AKT/mTOR signaling in human U87 cells assessed as up regulation of lysosomal associated membrane protein 3 gene expression at cytotoxic IC50 measured after 48 hrs relative to control
[32] = Inhibition of RTK/PI3K/AKT/mTOR signaling in human U87 cells assessed as up regulation of mir-100-let-7a-2 cluster host gene gene expression at cytotoxic IC50 measured after 48 hrs relative to control

## CC(=O)C(=NNc1ccccc1C#N)C(C)=O
[1]
  log2FC: -0.821
[2]
  log2FC: -0.527
[3]
  log2FC: 0.623
[4]
  log2FC: -0.568
[5]
  log2FC: -0.439
[6]
  log2FC: -7.64
[7]
  log2FC: -0.975
[8]
  log2FC: -1.08
[9]
  log2FC: -0.803
[10]
  log2FC: 0.891
[11]
  log2FC: -2.92
[12]
  log2FC: 0.518
[13]
  log2FC: -0.676
[14]
  log2FC: -1.29
[15]
  log2FC: 0.599
[16]
  log2FC: -0.782
[17]
  log2FC: 1
[18]
  log2FC: -2.26
[19]
  log2FC: 1.38
[20]
  log2FC: -0.879
[21]
  log2FC: 0.704
[22]
  log2FC: 2.07
[23]
  log2FC: 1.19
[24]
  log2FC: -0.816
[25]
  log2FC: -1.34
[26]
  log2FC: 0.514
[27]
  log2FC: 0.589
[28]
  log2FC: 1.14
[29]
  log2FC: 2.31
[30]
  log2FC: 1.22
[31]
  log2FC: 1.25
[32]
  log2FC: 1.23
